In the supplement of paper PMC10849652:
The other results are listed elsewhere or left out. Residues, ends and D or L forms follow the SMILES beside them. *: point of attachment. Cbz = O=C(OCc1ccccc1)*

Chains of the proteins cited; added tags and fusions are not shown. Lines headed by an entry give the natural chain unless they say otherwise; changes in a name come on top.
UniProt P28838: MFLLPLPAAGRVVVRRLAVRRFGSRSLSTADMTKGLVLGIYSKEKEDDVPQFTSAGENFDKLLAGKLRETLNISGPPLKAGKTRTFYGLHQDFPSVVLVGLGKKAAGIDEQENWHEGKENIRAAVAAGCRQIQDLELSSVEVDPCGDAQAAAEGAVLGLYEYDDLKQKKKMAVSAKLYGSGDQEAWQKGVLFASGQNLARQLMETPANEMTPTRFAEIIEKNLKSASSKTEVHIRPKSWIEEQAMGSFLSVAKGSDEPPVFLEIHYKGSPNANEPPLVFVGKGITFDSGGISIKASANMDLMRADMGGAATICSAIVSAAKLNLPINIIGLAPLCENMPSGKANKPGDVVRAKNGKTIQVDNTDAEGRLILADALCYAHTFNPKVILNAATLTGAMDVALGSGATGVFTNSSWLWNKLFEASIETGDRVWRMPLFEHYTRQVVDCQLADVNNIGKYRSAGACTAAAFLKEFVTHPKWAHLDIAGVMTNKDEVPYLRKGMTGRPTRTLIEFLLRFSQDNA
UniProt P13796: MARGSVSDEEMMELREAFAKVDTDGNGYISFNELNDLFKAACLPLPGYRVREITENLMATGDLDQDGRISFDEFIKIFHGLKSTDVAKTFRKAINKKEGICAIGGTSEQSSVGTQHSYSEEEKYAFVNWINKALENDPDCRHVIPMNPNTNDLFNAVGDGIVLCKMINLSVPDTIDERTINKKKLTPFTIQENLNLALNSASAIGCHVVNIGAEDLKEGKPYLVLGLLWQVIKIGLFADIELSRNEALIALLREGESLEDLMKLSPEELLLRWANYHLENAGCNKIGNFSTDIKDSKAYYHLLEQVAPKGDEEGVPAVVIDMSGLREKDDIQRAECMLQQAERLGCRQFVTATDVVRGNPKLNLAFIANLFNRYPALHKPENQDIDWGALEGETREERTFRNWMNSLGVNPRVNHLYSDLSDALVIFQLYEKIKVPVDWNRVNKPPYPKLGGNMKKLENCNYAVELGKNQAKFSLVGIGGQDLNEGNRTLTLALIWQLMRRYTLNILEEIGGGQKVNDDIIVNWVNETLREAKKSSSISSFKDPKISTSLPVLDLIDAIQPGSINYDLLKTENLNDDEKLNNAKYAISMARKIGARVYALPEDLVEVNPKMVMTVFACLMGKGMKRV
UniProt Q9NS86: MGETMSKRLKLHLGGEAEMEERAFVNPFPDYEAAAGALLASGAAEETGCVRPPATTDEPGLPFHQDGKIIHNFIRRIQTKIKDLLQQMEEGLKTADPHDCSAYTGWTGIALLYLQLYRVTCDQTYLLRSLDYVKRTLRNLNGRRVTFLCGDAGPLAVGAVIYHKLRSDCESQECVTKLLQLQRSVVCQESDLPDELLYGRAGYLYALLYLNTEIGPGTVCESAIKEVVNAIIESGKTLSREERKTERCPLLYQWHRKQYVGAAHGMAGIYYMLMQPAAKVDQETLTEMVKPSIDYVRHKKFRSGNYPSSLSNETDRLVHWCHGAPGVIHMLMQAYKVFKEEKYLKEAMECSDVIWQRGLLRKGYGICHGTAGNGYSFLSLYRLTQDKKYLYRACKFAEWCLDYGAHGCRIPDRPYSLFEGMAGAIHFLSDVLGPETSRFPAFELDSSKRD
UniProt P11279: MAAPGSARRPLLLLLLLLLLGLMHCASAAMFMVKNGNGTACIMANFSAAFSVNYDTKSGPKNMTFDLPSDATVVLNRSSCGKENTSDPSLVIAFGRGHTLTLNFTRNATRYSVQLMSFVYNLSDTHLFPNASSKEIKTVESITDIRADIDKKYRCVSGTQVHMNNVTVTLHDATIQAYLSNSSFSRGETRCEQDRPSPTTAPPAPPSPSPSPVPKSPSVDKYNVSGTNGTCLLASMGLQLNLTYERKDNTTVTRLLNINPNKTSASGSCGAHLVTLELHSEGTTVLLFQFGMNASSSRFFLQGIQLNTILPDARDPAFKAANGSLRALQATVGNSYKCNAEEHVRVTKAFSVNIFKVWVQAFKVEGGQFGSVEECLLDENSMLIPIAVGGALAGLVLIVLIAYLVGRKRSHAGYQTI
UniProt Q15031: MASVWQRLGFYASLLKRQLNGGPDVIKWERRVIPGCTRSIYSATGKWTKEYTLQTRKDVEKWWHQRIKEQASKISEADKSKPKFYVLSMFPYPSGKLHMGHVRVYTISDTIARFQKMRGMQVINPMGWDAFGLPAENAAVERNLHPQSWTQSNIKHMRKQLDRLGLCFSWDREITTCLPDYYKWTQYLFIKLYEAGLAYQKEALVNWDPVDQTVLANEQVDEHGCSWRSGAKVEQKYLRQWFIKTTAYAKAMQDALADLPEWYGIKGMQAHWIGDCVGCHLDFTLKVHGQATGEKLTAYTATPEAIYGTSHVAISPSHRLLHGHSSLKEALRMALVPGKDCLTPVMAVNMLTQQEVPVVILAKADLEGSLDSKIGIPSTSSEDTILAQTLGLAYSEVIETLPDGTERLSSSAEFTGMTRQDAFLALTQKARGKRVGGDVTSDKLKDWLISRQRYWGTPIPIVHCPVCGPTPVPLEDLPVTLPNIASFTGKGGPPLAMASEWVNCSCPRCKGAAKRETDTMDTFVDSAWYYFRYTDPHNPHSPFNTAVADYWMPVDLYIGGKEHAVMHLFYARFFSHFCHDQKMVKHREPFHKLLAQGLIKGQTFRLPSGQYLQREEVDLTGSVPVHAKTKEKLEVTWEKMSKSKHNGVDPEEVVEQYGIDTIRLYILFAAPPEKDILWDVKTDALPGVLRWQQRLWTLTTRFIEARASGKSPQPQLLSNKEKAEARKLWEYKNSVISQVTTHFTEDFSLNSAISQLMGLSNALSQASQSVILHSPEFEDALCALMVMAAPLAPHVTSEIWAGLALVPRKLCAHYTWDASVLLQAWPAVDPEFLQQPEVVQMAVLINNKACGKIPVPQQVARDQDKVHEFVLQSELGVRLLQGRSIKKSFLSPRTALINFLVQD
UniProt Q53H82: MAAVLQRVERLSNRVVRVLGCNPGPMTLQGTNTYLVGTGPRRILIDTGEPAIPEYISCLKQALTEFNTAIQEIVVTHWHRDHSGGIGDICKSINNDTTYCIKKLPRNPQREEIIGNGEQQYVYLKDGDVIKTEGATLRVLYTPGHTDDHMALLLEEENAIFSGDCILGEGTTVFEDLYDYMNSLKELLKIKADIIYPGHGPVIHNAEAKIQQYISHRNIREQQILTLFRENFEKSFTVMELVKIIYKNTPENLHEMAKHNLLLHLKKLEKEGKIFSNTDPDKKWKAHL
UniProt Q6YP21: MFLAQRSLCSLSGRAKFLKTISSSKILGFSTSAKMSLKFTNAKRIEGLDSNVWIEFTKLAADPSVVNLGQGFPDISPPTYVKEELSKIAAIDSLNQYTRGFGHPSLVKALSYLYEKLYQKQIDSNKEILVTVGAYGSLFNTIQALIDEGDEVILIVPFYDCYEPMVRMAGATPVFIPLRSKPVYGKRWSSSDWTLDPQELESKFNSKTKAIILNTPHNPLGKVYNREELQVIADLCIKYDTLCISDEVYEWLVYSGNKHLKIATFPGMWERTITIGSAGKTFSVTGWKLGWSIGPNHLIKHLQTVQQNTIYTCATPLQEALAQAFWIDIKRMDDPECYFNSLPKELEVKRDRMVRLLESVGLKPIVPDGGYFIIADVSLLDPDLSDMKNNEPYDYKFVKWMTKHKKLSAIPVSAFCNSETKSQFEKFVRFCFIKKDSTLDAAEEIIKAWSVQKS
UniProt Q6IAA8, whole entry, looked up: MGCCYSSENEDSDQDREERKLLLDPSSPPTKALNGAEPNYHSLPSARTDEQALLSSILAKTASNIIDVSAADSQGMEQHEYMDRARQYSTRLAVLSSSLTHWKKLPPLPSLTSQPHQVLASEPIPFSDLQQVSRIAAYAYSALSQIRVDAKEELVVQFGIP
UniProt Q9UHA4, whole entry, looked up: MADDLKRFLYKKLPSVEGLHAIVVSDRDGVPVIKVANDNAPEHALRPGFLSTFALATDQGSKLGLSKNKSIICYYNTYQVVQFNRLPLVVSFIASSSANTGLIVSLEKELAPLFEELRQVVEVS
UniProt Q8N1G4: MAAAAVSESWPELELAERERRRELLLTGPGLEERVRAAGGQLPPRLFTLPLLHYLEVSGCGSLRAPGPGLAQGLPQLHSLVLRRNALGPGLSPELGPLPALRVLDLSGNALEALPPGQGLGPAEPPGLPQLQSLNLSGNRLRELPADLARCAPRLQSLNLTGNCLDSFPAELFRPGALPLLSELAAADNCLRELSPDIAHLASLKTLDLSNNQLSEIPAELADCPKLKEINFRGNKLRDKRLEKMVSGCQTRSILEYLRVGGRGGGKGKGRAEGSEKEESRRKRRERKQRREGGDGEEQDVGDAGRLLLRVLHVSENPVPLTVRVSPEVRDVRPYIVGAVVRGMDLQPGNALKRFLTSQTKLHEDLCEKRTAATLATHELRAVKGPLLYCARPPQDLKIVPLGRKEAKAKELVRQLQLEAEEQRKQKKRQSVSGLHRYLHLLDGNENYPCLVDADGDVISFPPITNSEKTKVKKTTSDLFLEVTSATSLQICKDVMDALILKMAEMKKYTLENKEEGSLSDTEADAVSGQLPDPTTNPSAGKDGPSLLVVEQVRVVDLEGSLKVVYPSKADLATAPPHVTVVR
UniProt O94898: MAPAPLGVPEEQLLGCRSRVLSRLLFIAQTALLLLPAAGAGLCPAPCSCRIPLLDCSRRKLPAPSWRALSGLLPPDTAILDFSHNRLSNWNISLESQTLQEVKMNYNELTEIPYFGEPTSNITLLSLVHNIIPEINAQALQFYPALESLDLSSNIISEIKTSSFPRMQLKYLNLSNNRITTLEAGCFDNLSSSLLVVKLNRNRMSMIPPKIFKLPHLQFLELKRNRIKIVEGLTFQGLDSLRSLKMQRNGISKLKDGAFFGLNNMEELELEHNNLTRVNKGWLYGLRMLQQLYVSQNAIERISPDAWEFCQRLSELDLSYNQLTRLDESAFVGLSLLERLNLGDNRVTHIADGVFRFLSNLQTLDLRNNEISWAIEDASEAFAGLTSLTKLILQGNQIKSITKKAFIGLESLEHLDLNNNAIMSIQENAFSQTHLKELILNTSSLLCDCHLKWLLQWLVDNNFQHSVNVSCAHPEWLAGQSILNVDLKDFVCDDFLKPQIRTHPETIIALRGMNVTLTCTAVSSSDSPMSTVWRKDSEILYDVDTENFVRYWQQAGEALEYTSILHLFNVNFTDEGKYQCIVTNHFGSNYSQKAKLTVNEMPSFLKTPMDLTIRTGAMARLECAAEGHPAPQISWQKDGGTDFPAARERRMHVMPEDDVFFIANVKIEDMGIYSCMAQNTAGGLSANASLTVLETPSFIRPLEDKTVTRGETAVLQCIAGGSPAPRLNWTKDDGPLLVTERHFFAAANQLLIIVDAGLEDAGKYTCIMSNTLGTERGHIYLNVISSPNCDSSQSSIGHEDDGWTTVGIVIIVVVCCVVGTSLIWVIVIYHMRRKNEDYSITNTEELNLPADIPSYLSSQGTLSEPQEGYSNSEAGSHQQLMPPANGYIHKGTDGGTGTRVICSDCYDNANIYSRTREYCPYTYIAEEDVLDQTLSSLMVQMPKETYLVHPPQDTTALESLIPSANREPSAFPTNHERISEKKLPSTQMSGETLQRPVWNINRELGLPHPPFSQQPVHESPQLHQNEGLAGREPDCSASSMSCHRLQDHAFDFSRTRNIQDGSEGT
UniProt P49257: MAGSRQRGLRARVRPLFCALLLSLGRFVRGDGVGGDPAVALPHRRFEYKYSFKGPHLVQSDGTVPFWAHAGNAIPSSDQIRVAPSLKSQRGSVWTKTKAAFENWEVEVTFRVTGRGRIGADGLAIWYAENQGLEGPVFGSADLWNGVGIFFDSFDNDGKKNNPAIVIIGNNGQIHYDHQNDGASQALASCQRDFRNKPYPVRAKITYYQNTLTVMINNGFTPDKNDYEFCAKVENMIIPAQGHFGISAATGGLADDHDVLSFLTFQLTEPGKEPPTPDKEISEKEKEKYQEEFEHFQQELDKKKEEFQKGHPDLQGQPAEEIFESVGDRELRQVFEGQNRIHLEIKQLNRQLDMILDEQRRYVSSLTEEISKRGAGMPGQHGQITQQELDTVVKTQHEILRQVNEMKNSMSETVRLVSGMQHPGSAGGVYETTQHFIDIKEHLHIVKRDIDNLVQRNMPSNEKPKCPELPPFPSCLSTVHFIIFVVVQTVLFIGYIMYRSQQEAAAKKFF
UniProt Q96BZ8: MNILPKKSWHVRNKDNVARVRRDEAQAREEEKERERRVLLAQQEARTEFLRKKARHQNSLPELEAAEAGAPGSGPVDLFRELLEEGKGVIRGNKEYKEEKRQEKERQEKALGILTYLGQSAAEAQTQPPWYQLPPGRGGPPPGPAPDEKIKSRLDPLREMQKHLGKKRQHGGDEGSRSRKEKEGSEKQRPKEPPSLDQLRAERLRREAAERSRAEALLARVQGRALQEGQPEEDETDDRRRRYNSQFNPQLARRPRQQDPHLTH
UniProt Q9NUP9: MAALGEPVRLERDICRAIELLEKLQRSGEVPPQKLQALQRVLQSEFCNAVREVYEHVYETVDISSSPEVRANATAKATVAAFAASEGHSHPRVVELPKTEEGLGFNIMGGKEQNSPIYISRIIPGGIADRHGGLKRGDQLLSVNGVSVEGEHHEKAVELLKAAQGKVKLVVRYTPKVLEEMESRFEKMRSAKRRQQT

How the values were obtained:
Assay in all cases: log2 fold change, soluble protein after heating vs DMSO (PISA); higher = thermal stabilisation; K562 cells, 10 uM, 30 min; active = over 0.2 and 3.5 SD of the protein, either way, in both replicates (recomputed)
erlotinib = compound: C#Cc1cccc(Nc2ncnc3cc(OCCOC)c(OCCOC)cc23)c1 [erlotinib]
Method in brief: (§1)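 For each measurement, 10 μM compound was applied for 30 min to K562 cells at 2×10^6 cells/mL. Aliquots were heated for 3 min across 48°C-58°C, pooled, and extracted in PBS with 0.5% NP-40 at 4°C; the supernatant after 21,000xg for 90 min was soluble protein. This was quantified by TMTpro 16plex LC-MS/MS with channel sums equalised, and thermal stability was reported relative to control samples from duplicates, on a log2 fold-change scale.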

[1] = compound: C/C(=N\NC(=O)C1=CC(=CC=C1)S(=O)(=O)N2CCOCC2)/C3=C(C=CC(=C3)Cl)O
Method in brief: as §1

[2] = compound: C1=CC(=C(C=C1Cl)C2=NC3=NC=CN=C3C(=N2)NC4=CC=NC=C4)F
Method in brief: as §1

[3] = compound: C1=CC(=CC=C1C2=NC3=C(N2)C=C(C=C3)C(=O)N)OC4=CC=C(C=C4)Cl
Method in brief: as §1

[4] = compound: C1=CC2=C(C=CC(=C2)/C=C\3/C(=O)NC(=NCC4=CC=CS4)S3)N=C1
Method in brief: as §1

[5] = compound: C1=CC2=NC=CN=C2C=C1/C=C/3\C(=O)NC(=O)S3
Method in brief: as §1

[6] = compound: C1=CC=C(C=C1)C2=NC(=C(N2)C3=CC=NC=C3)C4=CC(=C(C=C4)Cl)O
Method in brief: as §1

[7] = compound: C1=CC=C2C(=C1)C3=NNC4=CC=CC(=C43)C2=O
Method in brief: as §1

[8] = compound: C1CCN(C1)C(=O)NC2=CC=CC(=C2)NC3=NC=C(C(=N3)NCCC4=CN=CN4)Br
Method in brief: as §1

[9] = compound: C1CN(CCC1(CC2=CC=C(C=C2)Cl)N)C3=NC=NC4=C3C=CN4
Method in brief: as §1

IRAK-1-4 Inhibitor I = compound: C1COCCN1CCN2C3=CC=CC=C3N=C2NC(=O)C4=CC(=CC=C4)[N+](=O)[O-] [IRAK-1-4 Inhibitor I]
Method in brief: as §1

ibrutinib = compound: C=CC(=O)N1CCC[C@@H](n2nc(-c3ccc(Oc4ccccc4)cc3)c3c(N)ncnc32)C1 [ibrutinib]
Method in brief: as §1

[10] = compound: CC(=O)c1cnc2ccc(-c3cc(Cl)c(O)c(Cl)c3)nc2c1N[C@H]1CC[C@H](CN(C)C)CC1
Method in brief: as §1

ralimetinib = compound: CC(C)(C)Cn1c(N)nc2ccc(-c3[nH]c(C(C)(C)C)nc3-c3ccc(F)cc3)nc21 [ralimetinib]
Method in brief: as §1

[11] = compound: CC(C)(O)CC(=O)NCCn1ccc2ncnc(Nc3ccc(Oc4cccc(C(F)(F)F)c4)c(Cl)c3)c21
Method in brief: as §1

[12] = compound: CC(C)C1=C2N=C(C=C(N2N=C1)NCC3=CC=CC=C3)NCCCCCCN
Method in brief: as §1

[13] = compound: CC(C)C[C@@H](C=O)NC(=O)[C@H](CC(C)C)NC(=O)[C@H](CC(C)C)NC(=O)OCc1ccccc1
Method in brief: as §1

pinometostat = compound: CC(C)N(C[C@H]1O[C@@H](n2cnc3c(N)ncnc32)[C@H](O)[C@@H]1O)[C@H]1C[C@@H](CCc2nc3cc(C(C)(C)C)ccc3[nH]2)C1 [pinometostat]
Method in brief: as §1

[14] = compound: CC1=C(C(CC(=O)N1)C2=CC=C(C=C2)C(F)(F)F)C(=O)NC3=C(C=C4C(=C3)C=NN4)F
Method in brief: as §1

[15] = compound: CC1=C(C2=C(C=C1)C(=O)C3=CC=CC=C3N2CCCN)C
Method in brief: as §1

Measured: log2 fold change

LAMTOR5 (UniProt O43504)
inactive: erlotinib -0.119 | [1] 0.089 | [2] 0.016 | [3] 0.083 | [4] 0.027 | [5] 0.113 | [6] 0.086 | [7] 0.099 | [8] -0.089 | [9] -0.144 | IRAK-1-4 Inhibitor I 0.013 | ibrutinib 0.005 | [10] -0.172 | ralimetinib -0.055 | [11] -0.09 | [12] -0.177 | [13] -0.119 | pinometostat -0.026 | [14] 0.04 | [15] 0.159

LAP3 (UniProt P28838)
inactive: erlotinib -0.063 | [1] -0.042 | [2] 0.043 | [3] 0.014 | [4] 0.004 | [5] 0.008 | [6] -0.006 | [7] 0.033 | [8] -0.013 | [9] 0.022 | IRAK-1-4 Inhibitor I 0.005 | ibrutinib 0.013 | [10] 0.007 | ralimetinib -0.058 | [11] -0.01 | [12] 0.019 | [13] -0.023 | pinometostat -0.068 | [14] 0.006 | [15] 0.01

LCP1 (UniProt P13796)
inactive: erlotinib 0.07 | [1] -0.055 | [2] 0.018 | [3] -0.021 | [4] -0.038 | [5] -0.001 | [6] -0.036 | [7] 0.019 | [8] 0.017 | [9] 0.034 | IRAK-1-4 Inhibitor I 0.041 | ibrutinib 0.008 | [10] 0.014 | ralimetinib -0.031 | [11] 0.042 | [12] 0.106 | [13] 0.013 | pinometostat -0.031 | [14] 0.033 | [15] -0.049

Reprinted at random: 2 records from the list
LAMTOR5 (UniProt O43504)
inactive: erlotinib -0.119 | [1] 0.089 | [2] 0.016 | [3] 0.083 | [4] 0.027 | [5] 0.113 | [6] 0.086 | [7] 0.099 | [8] -0.089 | [9] -0.144 | IRAK-1-4 Inhibitor I 0.013 | ibrutinib 0.005 | [10] -0.172 | ralimetinib -0.055 | [11] -0.09 | [12] -0.177 | [13] -0.119 | pinometostat -0.026 | [14] 0.04 | [15] 0.159

LAP3 (UniProt P28838)
inactive: erlotinib -0.063 | [1] -0.042 | [2] 0.043 | [3] 0.014 | [4] 0.004 | [5] 0.008 | [6] -0.006 | [7] 0.033 | [8] -0.013 | [9] 0.022 | IRAK-1-4 Inhibitor I 0.005 | ibrutinib 0.013 | [10] 0.007 | ralimetinib -0.058 | [11] -0.01 | [12] 0.019 | [13] -0.023 | pinometostat -0.068 | [14] 0.006 | [15] 0.01

(further entries)

LANCL2 (UniProt Q9NS86)
inactive: erlotinib 0.016 | [1] 0.012 | [2] 0.031 | [3] 0.033 | [4] -0.01 | [5] 0.027 | [6] -0.033 | [7] -0.024 | [8] -0.032 | [9] 0.037 | IRAK-1-4 Inhibitor I 0.022 | ibrutinib 0.039 | [10] 0.01 | ralimetinib -0.029 | [11] -0.038 | [12] 0.09 | [13] -0.023 | pinometostat 0.023 | [14] 0.009 | [15] -0.003

LAMP1 (UniProt P11279)
inactive: erlotinib -0.027 | [1] -0.017 | [2] 0 | [3] 0.008 | [4] 0.01 | [5] -0.005 | [6] 0.04 | [7] -0.014 | [8] 0.017 | [9] 0.019 | IRAK-1-4 Inhibitor I 0.039 | ibrutinib 0.001 | [10] 0 | ralimetinib 0.077 | [11] 0.03 | [12] 0.017 | [13] -0.055 | pinometostat -0.012 | [14] -0.007 | [15] -0.024

LARS2 (UniProt Q15031)
inactive: erlotinib 0.018 | [1] 0.076 | [2] 0.028 | [3] -0.022 | [4] 0.025 | [5] -0.007 | [6] 0.028 | [7] -0.013 | [8] -0.016 | [9] 0.002 | IRAK-1-4 Inhibitor I 0.012 | ibrutinib -0.02 | [10] 0.012 | ralimetinib 0.044 | [11] -0.046 | [12] -0.124 | [13] 0 | pinometostat -0.05 | [14] -0.021 | [15] 0.046

LACTB2 (UniProt Q53H82)
inactive: erlotinib -0.01 | [1] -0.023 | [2] 0.055 | [3] 0.04 | [4] 0.005 | [5] 0.004 | [6] 0.076 | [7] -0.02 | [8] -0.002 | [9] 0.035 | IRAK-1-4 Inhibitor I 0.004 | ibrutinib 0.016 | [10] 0.014 | ralimetinib 0.033 | [11] -0.036 | [12] 0.082 | [13] -0.063 | pinometostat -0.026 | [14] 0.066 | [15] -0.025

KYAT3 (UniProt Q6YP21)
inactive: erlotinib 0 | [1] 0.014 | [2] 0.016 | [3] 0.028 | [4] -0.024 | [5] -0.011 | [6] -0.02 | [7] -0.007 | [8] 0.035 | [9] 0.054 | IRAK-1-4 Inhibitor I 0.014 | ibrutinib 0.011 | [10] -0.008 | ralimetinib -0.058 | [11] 0 | [12] 0.051 | [13] -0.018 | pinometostat -0.025 | [14] 0.006 | [15] 0.017

LAMTOR1 (UniProt Q6IAA8)
inactive: erlotinib -0.059 | [1] 0.017 | [2] 0.005 | [3] 0.075 | [4] 0.061 | [5] 0.024 | [6] 0.055 | [7] 0.052 | [8] -0.075 | [9] -0.041 | IRAK-1-4 Inhibitor I 0.016 | ibrutinib 0.066 | [10] -0.206 | ralimetinib 0.116 | [11] 0 | [12] -0.32 | [13] -0.005 | pinometostat -0.004 | [14] 0.031 | [15] 0.018

LAMTOR3 (UniProt Q9UHA4)
inactive: erlotinib 0.046 | [1] 0.005 | [2] -0.036 | [3] -0.015 | [4] 0.055 | [5] 0.028 | [6] -0.119 | [7] -0.015 | [8] 0.034 | [9] -0.052 | IRAK-1-4 Inhibitor I -0.004 | ibrutinib 0.018 | [10] -0.19 | ralimetinib -0.025 | [11] 0.112 | [12] -0.259 | [13] 0.054 | pinometostat 0.032 | [14] 0.058 | [15] -0.008

LRRC47 (UniProt Q8N1G4)
inactive: erlotinib 0.018 | [1] 0.027 | [2] 0.016 | [3] 0.023 | [4] -0.013 | [5] -0.009 | [6] 0.015 | [7] -0.002 | [8] -0.03 | [9] -0.006 | IRAK-1-4 Inhibitor I 0.027 | ibrutinib -0.006 | [10] 0.008 | ralimetinib -0.031 | [11] -0.067 | [12] -0.033 | [13] -0.043 | pinometostat -0.042 | [14] -0.033 | [15] -0.039

LRIG2 (UniProt O94898)
inactive: erlotinib 0.107 | [1] -0.041 | [2] -0.007 | [3] -0.119 | [4] -0.066 | [5] -0.043 | [6] 0.051 | [7] -0.091 | [8] -0.11 | [9] -0.097 | IRAK-1-4 Inhibitor I 0 | ibrutinib 0.04 | [10] -0.018 | ralimetinib 0.045 | [11] 0.002 | [12] -0.05 | [13] 0.033 | pinometostat 0.08 | [14] 0.069 | [15] 0.051

LMAN1 (UniProt P49257)
inactive: erlotinib 0.012 | [1] -0.066 | [2] 0.025 | [3] -0.028 | [4] 0.045 | [5] 0.026 | [6] 0.019 | [7] -0.03 | [8] 0.048 | [9] 0.015 | IRAK-1-4 Inhibitor I -0.017 | ibrutinib -0.024 | [10] -0.017 | ralimetinib -0.019 | [11] -0.058 | [12] -0.084 | [13] -0.006 | pinometostat 0.02 | [14] 0.011 | [15] -0.006

LENG1 (UniProt Q96BZ8)
inactive: erlotinib 0.042 | [1] -0.07 | [2] -0.03 | [3] -0.011 | [4] 0.041 | [5] 0.079 | [6] -0.01 | [7] -0.031 | [8] 0.136 | [9] 0.004 | IRAK-1-4 Inhibitor I 0.065 | ibrutinib 0.025 | [10] 0.021 | ralimetinib -0.035 | [11] 0.045 | [12] 0.079 | [13] 0.011 | pinometostat -0.027 | [14] 0.001 | [15] 0.046

LIN7C (UniProt Q9NUP9)
inactive: erlotinib 0.035 | [1] 0.042 | [2] -0.033 | [3] 0.039 | [4] -0.032 | [5] 0.015 | [6] 0.029 | [7] -0.08 | [8] 0.088 | [9] -0.058 | IRAK-1-4 Inhibitor I 0.03 | ibrutinib 0.034 | [10] -0.013 | ralimetinib 0.015 | [11] -0.1 | [12] -0.046 | [13] 0.087 | pinometostat 0.01 | [14] -0.003 | [15] -0.005
